{"source": "PubChem BioAssay AID493014", "about": "(National Center for Advancing Translational Sciences (NCATS), 2011)", "note": "Among all 340,000 compounds or so, about 170 (0.05%) were called active. Inconclusive means that the source gave no clear call. Such entries were picked first, then a sample of the others. Calls come from the whole dose curve; as a rule, active = well fitted inhibition curve with a large enough effect in the signal ratio, with a control signal flat (not every such curve was filed as active); inconclusive = small, poorly fitted or top-dose-only effect, or effect the other way, or a change in a side signal; inactive = flat fitted curve, though single readings scatter; the % refers to the signal ratio. A potency beside an inconclusive call is a rough fit, not a confirmed value. Potency is the fitted concentration of half-maximal effect.", "data": [{"test": "qHTS Assay to Find Inhibitors of Chronic Active B-Cell Receptor Signaling;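 for activity change, negative = inhibition: plate controls were basal doxycycline-induced cells for no effect and cells given 10 µM MG132 for full effect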", "details": "ABC-DLBCL IkBa-CBG/CBR reporter, luminescence ratio (green luciferase fused to IkBa over red control in TMD8 lymphoma cells), 4 h; activity change, negative = inhibition: at 46.1 µM (top of the series) unless noted", "procedure,_shortened": "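Compounds up to 46 uM were incubated four hours with TMD8 cells whose green CBG68 luciferase is fused to IkappaBalpha; red CBR luminescence normalised the signal, and concentration-effect curves were fitted to fusion, red and ratio data.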", "values": [{"smiles": "CCOC(=O)c1ccc(NC(=O)c2nc(S(=O)(=O)Cc3ccccc3)ncc2Cl)cc1", "activity change, negative = inhibition": "inconclusive: 16.7%"}, {"smiles": "[2H]C(CCOS(N)(=O)=O)c1ccc(C(C)(C)C)cc1", "note": "(centres undefined)", "Potency": "inconclusive: 5.01 µM [falling, partial curve]"}, {"smiles": "COc1cc(C(=O)N/N=C/c2cccc(Oc3ccccc3)c2)ccc1O", "activity change, negative = inhibition": "inconclusive: -20%"}, {"smiles": "O=c1c2c(nc3c(-c4cccc5ccccc45)c[nH]n13)CCC2", "Potency": "inconclusive: 23.1 µM [falling, partial curve, poor fit]"}, {"smiles": "Cc1ccc(C(=O)NN2C(=O)C3C(C2=O)C2C=CC3C23CC3)cc1", "note": "(centres undefined)", "activity change, negative = inhibition": "inconclusive: -16.3%"}, {"smiles": "CCN1C(=NCC(C)C)N[C@@H](c2cccc(F)c2)C(C(=O)OC)=C1C", "Potency": "inconclusive: 1.12 µM [falling, full curve]"}, {"smiles": "COc1ccc(N(CC(=O)N2c3ccccc3CC2C)S(=O)(=O)c2c(C)noc2C)cc1", "note": "(centres undefined)", "activity change, negative = inhibition": "inconclusive: 0.939%"}, {"smiles": "O=C(NCC(=O)N1CCN(c2ncccn2)CC1)c1ccccc1OC(F)F", "activity change, negative = inhibition": "inconclusive: -19.4%"}, {"smiles": "CCc1nnc(NC(=O)Nc2ccc(Cl)cc2)s1", "activity change, negative = inhibition": "inconclusive: 20.9%"}, {"smiles": "CC1CCCCC1NC(=O)c1cc(S(=O)(=O)N2CCOCC2)ccc1Cl", "note": "(centres undefined)", "activity change, negative = inhibition": "inactive: 6.19%"}, {"smiles": "CC(=O)C1=C(C)NC(SCC(N)=O)=C(C#N)C1CC(C)C", "note": "(centres undefined)", "Potency": "inconclusive: 17.8 µM [falling, single point]"}, {"smiles": "CCSc1nnc([C@H](Cc2ccccc2)NC(=O)OC(C)(C)C)o1", "activity change, negative = inhibition": "inactive: 13.7%"}, {"smiles": "O=[N+]([O-])c1ccc(-c2nc(NCc3cccnc3)c3ccccc3n2)cc1", "activity change, negative = inhibition": "inconclusive: 5.38%"}, {"smiles": "COc1cc2c(cc1NC(=O)CN1C(=O)NC3(CCc4ccccc43)C1=O)oc1ccccc12", "note": "(centres undefined)", "activity change, negative = inhibition": "inconclusive: 12%"}, {"smiles": "O=C(Nc1cccc(C(=O)O)c1)/C(=C\\c1ccco1)NC(=O)c1ccc(Br)o1", "Potency": "inconclusive: 22.4 µM [falling, partial curve]"}, {"smiles": "COc1ccc(NC(=O)CNS(=O)(=O)c2ccc(Cl)cc2)cc1", "activity change, negative = inhibition": "inconclusive: 10%"}, {"smiles": "O=C1NC(=S)S/C1=C\\c1cc2ccccc2nc1N1CCCCC1", "activity change, negative = inhibition": "inconclusive: 9.63%"}, {"smiles": "O=C(Nc1cc(N2CCOCC2)ncn1)c1ccccc1", "activity change, negative = inhibition": "inconclusive: -17.7%"}, {"smiles": "COc1ccc(C2NC(=O)c3ccccc3N2)cc1", "note": "(centres undefined)", "activity change, negative = inhibition": "inconclusive: 3.87%"}, {"smiles": "Cc1ccn2c(=O)nc(SCC(=O)OCc3ccccc3)nc2c1", "Potency": "inconclusive: 3.66 µM [rising, single point]"}, {"smiles": "CCCCn1cnc2c1c(=O)[nH]c(=O)n2CCCC", "Potency": "inconclusive: 0.146 µM [rising, full curve, poor fit]"}, {"smiles": "COc1ccc(CCNC(=O)CSc2nnc(-c3ccc(C)cc3)c(-c3ccc(C)cc3)n2)cc1OC", "activity change, negative = inhibition": "inconclusive: -2.71%"}, {"smiles": "CCS(=O)(=O)c1ccc(O)c(NC(=O)/C=C/c2ccccc2)c1", "Potency": "inconclusive: 35.5 µM [falling, single point]"}, {"smiles": "CCSc1nnc(CNC(=O)C23CC4CC(CC(C4)C2)C3)n1C1CCCCC1", "activity change, negative = inhibition": "inactive: 9.8%"}, {"smiles": "Cc1ccc(C(=O)CC2(O)C(=O)N(Cc3ccccc3Cl)c3ccccc32)o1", "note": "(centres undefined)", "activity change, negative = inhibition": "inconclusive: -19.2%"}, {"smiles": "COc1ccccc1C(=O)NCC(=O)Nc1ccc2c(c1)CCC2", "activity change, negative = inhibition": "inconclusive: 2.44%"}, {"smiles": "CC1(C)Oc2ccc3ccc(=O)oc3c2/C(=C/NC2CCCCC2)C1=O", "activity change, negative = inhibition": "inactive: 17.3%"}, {"smiles": "C/C(=N\\NC(=O)c1ccccc1O)c1ccc(NC(=O)Cc2ccccc2)cc1", "activity change, negative = inhibition": "inconclusive: 275%"}, {"smiles": "COC(=O)CSC1=C(C#N)C(c2ccc(C)o2)CC(=O)N1", "note": "(centres undefined)", "Potency": "inconclusive: 28.2 µM [falling, single point]"}, {"smiles": "CCN(CC)c1ccc(CN(C(=O)c2cc(OC)c(OC)c(OC)c2)C2CCS(=O)(=O)C2)cc1", "note": "(centres undefined)", "activity change, negative = inhibition": "inconclusive: -0.744%"}, {"smiles": "CCOC(=O)c1ccc2c(c1)n(CC)c(/C=C/N(C)c1ccccc1)[n+]2CC", "activity change, negative = inhibition": "inconclusive: 6.8%"}, {"smiles": "COc1ccc(Nc2nc(NCc3ccco3)nc(N)c2[N+](=O)[O-])cc1", "activity change, negative = inhibition": "inconclusive: -1.5%"}, {"smiles": "Clc1ccc2nc(-c3ccc4c(c3)OCO4)cn2c1", "Potency": "inconclusive: 25.1 µM [falling, partial curve]"}, {"smiles": "O=C(CSc1ccc(-c2ccco2)nn1)NCc1ccc(Cl)cc1", "activity change, negative = inhibition": "inconclusive: -2.44%"}, {"smiles": "COc1cc(C(=S)N2CCOCC2)cc(OC)c1OC(=O)Cc1ccc(F)cc1", "activity change, negative = inhibition": "inconclusive: -4.41%"}, {"smiles": "COc1ccc(S(=O)(=O)N2CCSCC2)cc1C(N)=O", "activity change, negative = inhibition": "inconclusive: -13.9%"}, {"smiles": "Cc1c(Cl)cccc1Nc1nc(N)nc(CN2CCc3ccccc3C2)n1", "Potency": "inconclusive: 8.2 µM [falling, partial curve, poor fit]"}, {"smiles": "COc1ccc(C(=O)Nn2c(SCc3cccc([N+](=O)[O-])c3)nc3ccccc3c2=O)cc1", "Potency": "inconclusive: 20.6 µM [falling, partial curve]"}, {"smiles": "CCCC(=O)Nc1ccc2c(c1)nc1n2CCSC1", "activity change, negative = inhibition": "inconclusive: 11.7%"}, {"smiles": "Cc1ccc(C(=O)NC2CC(=O)N(c3ccc4c(c3)OCCO4)C2)cc1[N+](=O)[O-]", "note": "(centres undefined)", "activity change, negative = inhibition": "inconclusive: -8.55%"}, {"smiles": "CCOC(=O)c1[nH]c(CO)c(C(=O)OCC)c1C", "activity change, negative = inhibition": "inconclusive: -4.94%"}, {"smiles": "COC(=O)/C(C(C)=O)=C(\\C=C\\N(C)C)N(C)C", "Potency": "inconclusive: 1.46 µM [rising, full curve]"}, {"smiles": "COC(C[C@H]1O[C@H]1[C@@H](O)[C@@H](C)OCc1ccccc1)OC", "activity change, negative = inhibition": "inactive: 0.011%"}, {"smiles": "Cc1c(CC(=O)NCC(=O)NCC(=O)O)c(=O)oc2c(C)c3oc4c(c3cc12)CCCC4", "activity change, negative = inhibition": "inconclusive: 0.302%"}, {"smiles": "COC(=O)CN1C(=O)S/C(=C/c2ccc(N3CCCCC3)o2)C1=O", "activity change, negative = inhibition": "inactive: 3.22%"}, {"smiles": "COc1ccc(/C=C/c2nc3ccccc3n2Cc2ccccc2OC)cc1", "activity change, negative = inhibition": "inconclusive: -8.85%"}, {"smiles": "CC(c1ccco1)N(C(=O)c1ccc(C#N)cc1)c1ccccn1", "note": "(centres undefined)", "activity change, negative = inhibition": "inconclusive: -8.34%"}, {"smiles": "CC(C)C(=O)N(Cc1ccc(F)cc1)Cc1nc2ccccc2c(=O)[nH]1", "activity change, negative = inhibition": "inactive: -8.68%"}, {"smiles": "CSCCC(NC(=O)c1ccccc1)C(=O)OCC(=O)Nc1ccc(C)c(Cl)c1", "note": "(centres undefined)", "Potency": "inconclusive: 0.461 µM [rising, full curve, poor fit]"}, {"smiles": "COc1ccc2c(c1)c(C(=O)N/N=C/c1ccccc1Cl)c(C)n2C", "Potency": "inconclusive: 3.55 µM [falling, partial curve, poor fit]"}, {"smiles": "NC(=O)C(c1ccc(F)cc1)c1ccc(C(=O)c2ccccc2)cc1", "note": "(centres undefined)", "activity change, negative = inhibition": "inconclusive: -13.7%"}, {"smiles": "COc1ccc(OC)c(C2C=C(C34CC5CC(CC(C5)C3)C4)NC(=S)N2)c1", "note": "(centres undefined)", "activity change, negative = inhibition": "inactive: 2.2%"}, {"smiles": "O=C(/C=C/c1cccs1)NNC(=O)c1ccccc1", "Potency": "inconclusive: 6.51 µM [falling, single point]"}, {"smiles": "CC1CCN(c2ccc([N+](=O)[O-])cc2C(=O)NCC2CCCO2)CC1", "note": "(centres undefined)", "activity change, negative = inhibition": "inactive: -2.49%"}, {"smiles": "CCOc1ccc(C(=O)NC2CCN(C(=O)Nc3ccccc3OC)CC2)cc1", "activity change, negative = inhibition": "inconclusive: 8.12%"}, {"smiles": "COc1ccc2c(C)cc(C)nc2n1", "activity change, negative = inhibition": "inconclusive: -15.3%"}, {"smiles": "O=C(NCCCn1ccnc1)C(=O)NCC(c1cccnc1)N1CCN(c2ccccc2)CC1", "note": "(centres undefined)", "activity change, negative = inhibition": "inactive: 6.92%"}, {"smiles": "NC(=O)c1ccc2nc(NC(=O)c3ccc(N)cc3)sc2c1", "Potency": "inconclusive: 20 µM [falling, partial curve, poor fit]"}, {"smiles": "Cc1c(C#N)c(NC(=O)CCl)n(Cc2ccc(F)cc2)c1C", "Potency": "inconclusive: 7.94 µM [falling, partial curve, poor fit]"}, {"smiles": "CCc1nnc(NC(=O)CN2CCN(c3cccc(OC)c3)CC2)s1", "activity change, negative = inhibition": "inconclusive: 5.21%"}, {"smiles": "CCCCCC(=O)N/N=C(\\C)c1ccc(NC(=O)c2ccco2)cc1", "activity change, negative = inhibition": "inconclusive: -2.94%"}, {"smiles": "CC(=O)C[C@H](O)CC(=O)[C@@H]1OC(=O)CCCCCCCCc2ccccc21", "Potency": "inconclusive: 18.4 µM [falling, partial curve, poor fit]"}, {"smiles": "COc1ccc(NC(=O)C(Cc2ccccc2)n2cccc2)c(OC)c1", "note": "(centres undefined)", "activity change, negative = inhibition": "inconclusive: 1.09%"}, {"smiles": "O=C(NN=C1CCCC1)c1ccc(O)cc1O", "Potency": "inconclusive: 12.6 µM [falling, partial curve]"}, {"smiles": "COc1ccc(C2N(c3ccccc3)CCN2c2ccccc2)cc1O", "activity change, negative = inhibition": "inconclusive: 15.4%"}, {"smiles": "Cc1ccc(-c2nnc(SCC(=O)N3CCCC3)o2)cc1C", "activity change, negative = inhibition": "inconclusive: -12.7%"}, {"smiles": "CC(=O)[C@H]1[C@H](C#N)C[C@H]2[C@@H]3CC=C4C[C@@H](O)CC[C@]4(C)[C@H]3CC[C@@]21C", "activity change, negative = inhibition": "inconclusive: 3.77%"}, {"smiles": "Cc1ccc(S(=O)(=O)n2cc(-c3ccccc3)c3ccccc32)cc1", "Potency": "inconclusive: 5.8 µM [falling, partial curve, poor fit]"}, {"smiles": "CCOc1ccc(-c2ccc(CO)o2)cc1N", "activity change, negative = inhibition": "inactive: 1.39%"}, {"smiles": "COc1cc(CNn2c(C)n[nH]c2=S)cc(Cl)c1OCC(=O)NC(C)(C)C", "activity change, negative = inhibition": "inconclusive: -11.7%"}, {"smiles": "CC1CN(c2ccccc2)c2nc3c(c(=O)[nH]c(=O)n3C)n2C1", "note": "(centres undefined)", "activity change, negative = inhibition": "inconclusive: -5.48%"}, {"smiles": "O=C(NNC(=O)c1ccc(Br)cc1)c1ccncc1", "Potency": "inconclusive: 12.6 µM [falling, single point]"}, {"smiles": "Cc1cccc(-c2cc3nc(C)cc(C)n3n2)c1", "Potency": "inconclusive: 31.6 µM [falling, single point]"}, {"smiles": "CCCN1CCC(=O)N([C@H](CSc2ccc(Br)cc2)Cc2ccccc2)CC1", "activity change, negative = inhibition": "inactive: -0.178%"}, {"smiles": "CN(C(=O)c1cc2c(=O)n3ccccc3nc2n1C)C1CCCCC1", "activity change, negative = inhibition": "inconclusive: 3.93%"}, {"smiles": "Cc1ccc(S(=O)(=O)N2CCc3cc4c(cc3C2C)OCCCO4)cc1", "note": "(centres undefined)", "activity change, negative = inhibition": "inactive: -3.47%"}, {"smiles": "COCCNC(=O)CSc1nc(-c2ccccc2)c(-c2ccccc2)o1", "activity change, negative = inhibition": "inconclusive: 9.97%"}, {"smiles": "CCC(CO)NCc1ccc(-c2ccccc2)cc1", "note": "(centres undefined)", "activity change, negative = inhibition": "inconclusive: -2.99%"}, {"smiles": "CCCn1nc(C(=O)NCc2ccccn2)c2ccccc2c1=O", "activity change, negative = inhibition": "inconclusive: -1.09%"}]}]}
